Assay results as given in the supplement of paper PMC10849652.
Some of the results follow.

Protein sequences, listed by entry. Tags and fused reporters are not part of them. Lines headed by an entry give the natural chain unless they say otherwise; changes in a name come on top.
UniProt Q7Z7H5: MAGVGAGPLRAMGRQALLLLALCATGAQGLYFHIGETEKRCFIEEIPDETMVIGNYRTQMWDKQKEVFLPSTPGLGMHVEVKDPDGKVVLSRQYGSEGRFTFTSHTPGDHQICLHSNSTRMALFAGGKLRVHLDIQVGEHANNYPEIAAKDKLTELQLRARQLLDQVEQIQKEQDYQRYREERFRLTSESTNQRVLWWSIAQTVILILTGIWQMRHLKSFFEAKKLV
UniProt Q9P0S9: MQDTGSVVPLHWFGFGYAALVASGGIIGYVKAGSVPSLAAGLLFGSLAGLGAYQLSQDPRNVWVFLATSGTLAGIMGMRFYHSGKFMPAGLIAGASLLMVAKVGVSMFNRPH
UniProt Q9BRN9: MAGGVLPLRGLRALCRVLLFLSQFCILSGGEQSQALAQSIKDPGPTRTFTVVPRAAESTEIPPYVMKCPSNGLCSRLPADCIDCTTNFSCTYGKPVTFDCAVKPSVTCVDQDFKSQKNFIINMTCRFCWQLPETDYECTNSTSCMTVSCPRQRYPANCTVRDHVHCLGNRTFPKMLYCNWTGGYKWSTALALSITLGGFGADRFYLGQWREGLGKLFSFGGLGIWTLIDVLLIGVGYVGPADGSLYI
UniProt Q96I45: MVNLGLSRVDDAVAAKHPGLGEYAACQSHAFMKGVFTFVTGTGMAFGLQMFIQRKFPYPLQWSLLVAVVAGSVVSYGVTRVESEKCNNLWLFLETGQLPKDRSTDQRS
UniProt P57088: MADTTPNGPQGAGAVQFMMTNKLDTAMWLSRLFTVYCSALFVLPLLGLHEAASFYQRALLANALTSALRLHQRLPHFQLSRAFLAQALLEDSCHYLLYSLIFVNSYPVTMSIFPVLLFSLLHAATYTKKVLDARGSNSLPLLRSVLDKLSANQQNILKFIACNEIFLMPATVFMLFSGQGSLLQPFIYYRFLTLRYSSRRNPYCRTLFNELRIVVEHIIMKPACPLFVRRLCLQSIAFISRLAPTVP
UniProt O14763, whole entry, looked up: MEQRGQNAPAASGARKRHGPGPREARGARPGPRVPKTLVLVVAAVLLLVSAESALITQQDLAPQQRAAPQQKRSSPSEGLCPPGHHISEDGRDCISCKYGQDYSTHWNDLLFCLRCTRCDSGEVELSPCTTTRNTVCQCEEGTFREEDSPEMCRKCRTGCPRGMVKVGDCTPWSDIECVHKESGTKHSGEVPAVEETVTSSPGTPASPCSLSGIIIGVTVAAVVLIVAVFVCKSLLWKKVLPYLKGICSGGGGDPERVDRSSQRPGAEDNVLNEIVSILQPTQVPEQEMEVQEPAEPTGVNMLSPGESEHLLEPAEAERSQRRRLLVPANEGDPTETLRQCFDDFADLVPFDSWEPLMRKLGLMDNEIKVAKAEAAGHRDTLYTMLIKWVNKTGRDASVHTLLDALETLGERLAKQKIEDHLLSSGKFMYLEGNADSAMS
UniProt Q9HD45: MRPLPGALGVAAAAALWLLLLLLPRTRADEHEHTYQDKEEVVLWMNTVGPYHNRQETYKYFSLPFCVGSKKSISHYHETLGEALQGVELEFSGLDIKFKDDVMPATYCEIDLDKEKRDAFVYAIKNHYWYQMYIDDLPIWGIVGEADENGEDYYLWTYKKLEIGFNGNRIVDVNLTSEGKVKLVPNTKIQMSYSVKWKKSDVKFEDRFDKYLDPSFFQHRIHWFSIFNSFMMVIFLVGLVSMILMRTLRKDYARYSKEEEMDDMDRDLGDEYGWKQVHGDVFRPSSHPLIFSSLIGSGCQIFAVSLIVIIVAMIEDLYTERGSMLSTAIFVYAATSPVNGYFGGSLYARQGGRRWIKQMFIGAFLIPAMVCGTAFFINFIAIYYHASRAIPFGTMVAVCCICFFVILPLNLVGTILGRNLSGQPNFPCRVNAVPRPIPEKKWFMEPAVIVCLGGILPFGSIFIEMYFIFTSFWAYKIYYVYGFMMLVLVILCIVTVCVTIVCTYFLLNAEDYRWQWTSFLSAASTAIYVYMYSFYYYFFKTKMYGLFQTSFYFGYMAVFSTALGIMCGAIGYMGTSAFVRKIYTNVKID
UniProt P42167: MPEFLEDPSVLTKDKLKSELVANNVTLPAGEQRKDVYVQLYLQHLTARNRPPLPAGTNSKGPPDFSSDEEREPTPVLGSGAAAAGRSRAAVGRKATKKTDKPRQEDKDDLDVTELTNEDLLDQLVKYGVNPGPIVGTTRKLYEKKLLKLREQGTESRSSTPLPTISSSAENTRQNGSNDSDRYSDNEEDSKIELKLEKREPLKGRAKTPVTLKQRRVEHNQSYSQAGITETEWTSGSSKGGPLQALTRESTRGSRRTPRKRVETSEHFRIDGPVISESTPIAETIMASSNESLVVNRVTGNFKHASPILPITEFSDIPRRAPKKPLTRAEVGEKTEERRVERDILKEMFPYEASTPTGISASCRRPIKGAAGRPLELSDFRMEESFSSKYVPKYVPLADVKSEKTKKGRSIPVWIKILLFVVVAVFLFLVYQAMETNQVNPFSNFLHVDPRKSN
UniProt Q9NYL9: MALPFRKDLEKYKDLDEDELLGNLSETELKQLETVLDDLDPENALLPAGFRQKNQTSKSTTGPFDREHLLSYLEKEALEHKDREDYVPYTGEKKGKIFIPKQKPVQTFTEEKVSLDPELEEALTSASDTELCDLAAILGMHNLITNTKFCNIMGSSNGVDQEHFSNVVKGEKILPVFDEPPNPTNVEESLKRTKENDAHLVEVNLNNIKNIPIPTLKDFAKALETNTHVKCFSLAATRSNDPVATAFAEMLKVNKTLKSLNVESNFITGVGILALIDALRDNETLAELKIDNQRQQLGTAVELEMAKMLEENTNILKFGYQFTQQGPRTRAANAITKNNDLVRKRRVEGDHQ
UniProt Q9H0R3: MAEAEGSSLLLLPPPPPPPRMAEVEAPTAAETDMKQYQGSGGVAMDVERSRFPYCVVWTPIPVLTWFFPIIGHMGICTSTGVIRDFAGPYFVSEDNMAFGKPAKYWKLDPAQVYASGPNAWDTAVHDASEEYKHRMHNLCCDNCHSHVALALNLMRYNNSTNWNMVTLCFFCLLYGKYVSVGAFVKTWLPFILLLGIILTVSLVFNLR
UniProt Q96MH6: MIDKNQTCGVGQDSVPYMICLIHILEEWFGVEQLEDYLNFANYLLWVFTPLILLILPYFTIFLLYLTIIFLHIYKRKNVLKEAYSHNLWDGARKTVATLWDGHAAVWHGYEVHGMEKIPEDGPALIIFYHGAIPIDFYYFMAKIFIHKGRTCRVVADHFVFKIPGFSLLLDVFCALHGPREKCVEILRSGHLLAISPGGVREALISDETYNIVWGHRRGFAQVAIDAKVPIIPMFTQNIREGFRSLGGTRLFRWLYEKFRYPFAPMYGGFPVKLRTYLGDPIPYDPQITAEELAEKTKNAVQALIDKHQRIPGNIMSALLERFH
UniProt Q15363: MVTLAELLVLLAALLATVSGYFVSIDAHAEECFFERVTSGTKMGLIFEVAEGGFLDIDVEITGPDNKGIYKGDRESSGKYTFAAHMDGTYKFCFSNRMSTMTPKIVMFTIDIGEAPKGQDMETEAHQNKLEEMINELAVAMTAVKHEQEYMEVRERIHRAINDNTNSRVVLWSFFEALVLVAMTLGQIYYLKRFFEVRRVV
UniProt Q9H1E5: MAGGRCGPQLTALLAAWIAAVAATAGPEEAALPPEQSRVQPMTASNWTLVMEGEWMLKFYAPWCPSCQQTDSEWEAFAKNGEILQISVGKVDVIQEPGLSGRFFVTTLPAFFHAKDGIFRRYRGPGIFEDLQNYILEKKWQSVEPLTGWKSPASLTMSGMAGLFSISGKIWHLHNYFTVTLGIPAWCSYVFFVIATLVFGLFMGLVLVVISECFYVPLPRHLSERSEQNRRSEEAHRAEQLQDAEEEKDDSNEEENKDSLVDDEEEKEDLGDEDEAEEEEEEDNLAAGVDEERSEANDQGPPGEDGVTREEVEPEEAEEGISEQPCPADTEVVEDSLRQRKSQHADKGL
UniProt P42166: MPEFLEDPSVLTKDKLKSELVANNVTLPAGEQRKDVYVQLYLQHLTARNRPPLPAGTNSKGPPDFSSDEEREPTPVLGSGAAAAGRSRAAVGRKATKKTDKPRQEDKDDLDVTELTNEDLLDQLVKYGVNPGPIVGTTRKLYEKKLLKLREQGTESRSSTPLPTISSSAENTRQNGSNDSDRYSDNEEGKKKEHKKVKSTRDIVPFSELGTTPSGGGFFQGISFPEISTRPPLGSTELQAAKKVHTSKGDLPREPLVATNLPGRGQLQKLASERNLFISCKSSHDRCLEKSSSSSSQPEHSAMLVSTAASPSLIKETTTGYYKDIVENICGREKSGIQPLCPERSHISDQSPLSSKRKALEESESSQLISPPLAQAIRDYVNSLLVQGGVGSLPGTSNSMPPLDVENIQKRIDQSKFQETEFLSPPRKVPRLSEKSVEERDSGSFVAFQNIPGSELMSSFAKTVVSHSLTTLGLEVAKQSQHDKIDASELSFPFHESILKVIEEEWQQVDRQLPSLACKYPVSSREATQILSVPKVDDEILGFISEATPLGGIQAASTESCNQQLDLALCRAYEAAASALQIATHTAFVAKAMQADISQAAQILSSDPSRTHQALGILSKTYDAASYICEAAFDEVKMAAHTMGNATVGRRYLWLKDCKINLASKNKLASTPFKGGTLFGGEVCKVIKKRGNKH
UniProt Q4ZIN3: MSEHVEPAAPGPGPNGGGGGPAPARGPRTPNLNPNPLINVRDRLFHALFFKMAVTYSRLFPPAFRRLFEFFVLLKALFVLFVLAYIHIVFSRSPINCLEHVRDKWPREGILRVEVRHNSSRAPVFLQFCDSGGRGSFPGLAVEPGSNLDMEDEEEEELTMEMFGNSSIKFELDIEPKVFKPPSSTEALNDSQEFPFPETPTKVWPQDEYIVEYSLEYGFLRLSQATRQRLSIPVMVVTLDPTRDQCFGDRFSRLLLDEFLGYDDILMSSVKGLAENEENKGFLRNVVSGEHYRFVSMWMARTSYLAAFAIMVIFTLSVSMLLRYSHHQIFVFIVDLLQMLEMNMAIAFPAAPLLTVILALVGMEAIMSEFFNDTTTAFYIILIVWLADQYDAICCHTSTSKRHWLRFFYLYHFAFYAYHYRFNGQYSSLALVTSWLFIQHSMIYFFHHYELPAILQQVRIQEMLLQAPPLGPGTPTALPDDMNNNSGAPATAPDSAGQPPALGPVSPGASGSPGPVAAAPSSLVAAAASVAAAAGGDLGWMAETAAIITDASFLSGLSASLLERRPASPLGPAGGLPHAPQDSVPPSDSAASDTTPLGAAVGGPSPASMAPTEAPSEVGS
UniProt P63313: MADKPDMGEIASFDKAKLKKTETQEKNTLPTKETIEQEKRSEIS
UniProt Q9NWD8: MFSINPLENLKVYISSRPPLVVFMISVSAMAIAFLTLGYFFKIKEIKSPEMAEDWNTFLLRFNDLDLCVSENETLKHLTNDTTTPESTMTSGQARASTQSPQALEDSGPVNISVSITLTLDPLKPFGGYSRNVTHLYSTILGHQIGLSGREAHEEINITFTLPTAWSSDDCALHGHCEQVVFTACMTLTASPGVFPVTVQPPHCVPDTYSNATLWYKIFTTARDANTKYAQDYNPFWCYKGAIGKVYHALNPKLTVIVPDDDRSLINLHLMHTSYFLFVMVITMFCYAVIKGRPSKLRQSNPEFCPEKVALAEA
UniProt Q9Y3Q3: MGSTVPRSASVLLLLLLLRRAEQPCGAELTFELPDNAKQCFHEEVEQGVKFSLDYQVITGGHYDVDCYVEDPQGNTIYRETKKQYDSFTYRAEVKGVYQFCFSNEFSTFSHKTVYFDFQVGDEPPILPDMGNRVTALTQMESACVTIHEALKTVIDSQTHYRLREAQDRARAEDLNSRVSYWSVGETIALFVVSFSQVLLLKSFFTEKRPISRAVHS
UniProt Q0P6H9: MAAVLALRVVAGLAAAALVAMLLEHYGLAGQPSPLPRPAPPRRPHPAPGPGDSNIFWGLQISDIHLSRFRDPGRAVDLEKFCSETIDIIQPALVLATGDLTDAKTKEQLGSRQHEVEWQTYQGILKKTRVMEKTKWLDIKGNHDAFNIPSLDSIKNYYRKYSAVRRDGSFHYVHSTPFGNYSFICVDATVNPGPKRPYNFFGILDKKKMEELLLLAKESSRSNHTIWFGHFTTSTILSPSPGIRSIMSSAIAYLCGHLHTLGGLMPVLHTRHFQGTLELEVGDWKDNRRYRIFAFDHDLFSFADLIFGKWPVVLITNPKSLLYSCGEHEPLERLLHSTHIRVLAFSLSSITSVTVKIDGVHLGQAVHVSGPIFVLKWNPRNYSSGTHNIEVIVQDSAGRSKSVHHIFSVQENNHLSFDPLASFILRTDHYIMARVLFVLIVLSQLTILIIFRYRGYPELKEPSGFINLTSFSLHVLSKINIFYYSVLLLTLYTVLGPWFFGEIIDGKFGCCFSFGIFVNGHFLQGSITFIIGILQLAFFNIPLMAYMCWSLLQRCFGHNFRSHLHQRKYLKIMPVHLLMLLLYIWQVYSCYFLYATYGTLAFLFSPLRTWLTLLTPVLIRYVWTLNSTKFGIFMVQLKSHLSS
UniProt P17152: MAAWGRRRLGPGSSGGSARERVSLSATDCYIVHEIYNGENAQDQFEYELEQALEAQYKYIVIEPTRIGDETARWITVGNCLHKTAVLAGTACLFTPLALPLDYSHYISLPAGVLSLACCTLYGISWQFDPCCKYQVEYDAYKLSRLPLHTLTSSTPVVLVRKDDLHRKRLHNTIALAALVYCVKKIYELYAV

Compound: CNC(=O)c1ccc(Nc2ncc(C(F)(F)F)c(NCc3nccnc3N(C)S(C)(=O)=O)n2)cc1 [defactinib]
Experiment: log2 fold change, soluble protein after heating vs DMSO (PISA); higher = thermal stabilisation; K562 cells, 10 uM, 30 min; active = over 0.2 and 3.5 SD of the protein, either way, in both replicates (recomputed)
Outline: (§1)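 For each measurement, 10 μM compound was applied for 30 min to K562 cells at 2×10^6 cells/mL. Aliquots were heated for 3 min across 48°C-58°C, pooled, and extracted in PBS with 0.5% NP-40 at 4°C; the supernatant after 21,000xg for 90 min was soluble protein. This was quantified by TMTpro 16plex LC-MS/MS with channel sums equalised, and thermal stability was reported relative to control samples from duplicates, on a log2 fold-change scale.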

Row | Target | log2 fold change
1 | TMEM245 (UniProt Q9H330) | inactive: 0.017
2 | TMEM167A (UniProt Q8TBQ9) | inactive: -0.028
3 | TMOD2 (UniProt Q9NZR1) | inactive: 0.047
4 | TMED4 (UniProt Q7Z7H5) | inactive: -0.007
5 | TMEM14C (UniProt Q9P0S9) | inactive: -0.056
6 | TLN2 (UniProt Q9Y4G6) | inactive: -0.02
7 | TMEM109 (UniProt Q9BVC6) | inactive: 0.008
8 | TM2D3 (UniProt Q9BRN9) | inactive: -0.078
9 | TMEM186 (UniProt Q96B77) | inactive: -0.044
10 | TMEM141 (UniProt Q96I45) | inactive: -0.046
11 | TMEM65 (UniProt Q6PI78) | inactive: 0.113
12 | TMEM87A (UniProt Q8NBN3) | inactive: -0.029
13 | TMEM33 (UniProt P57088) | inactive: -0.041
14 | TLN1 (UniProt Q9Y490) | inactive: -0.061
15 | TNFRSF10B (UniProt O14763) | inactive: 0.026
16 | TMEM160 (UniProt Q9NX00) | inactive: -0.018
17 | TM9SF3 (UniProt Q9HD45) | inactive: -0.021
18 | TMPO isoform 2 (UniProt P42167) | inactive: 0.061
19 | TMOD3 (UniProt Q9NYL9) | inactive: -0.073
20 | TMEM222 (UniProt Q9H0R3) | inactive: -0.083

Row | Target | log2 fold change
21 | TMEM185B (UniProt Q9H7F4) | inactive: 0.061
22 | TMA16 (UniProt Q96EY4) | inactive: 0.114
23 | TMEM30A (UniProt Q9NV96) | inactive: 0.034
24 | TMEM68 (UniProt Q96MH6) | inactive: -0.031
25 | TMCO1 (UniProt Q9UM00) | inactive: -0.047
26 | TMED2 (UniProt Q15363) | inactive: 0.003
27 | TMX4 (UniProt Q9H1E5) | inactive: -0.058
28 | TMEM168 (UniProt Q9H0V1) | inactive: -0.025
29 | TMPO (UniProt P42166) | inactive: -0.061
30 | TMEM259 (UniProt Q4ZIN3) | inactive: -0.013
31 | TMSB10 (UniProt P63313) | inactive: -0.104
32 | TMEM248 (UniProt Q9NWD8) | inactive: 0.037
33 | TMED3 (UniProt Q9Y3Q3) | inactive: -0.027
34 | TMEM209 (UniProt Q96SK2) | inactive: -0.022
35 | TMEM230 isoform 2 (UniProt Q96A57) | inactive: 0.115
36 | TMED1 (UniProt Q13445) | inactive: -0.014
37 | TMPO (UniProt P42167) | inactive: -0.005
38 | TMEM62 (UniProt Q0P6H9) | inactive: 0.048
39 | TMEM11 (UniProt P17152) | inactive: -0.07

Compound: CNCc1ccc(-c2[nH]c3cc(F)cc4c3c2CCNC4=O)cc1 [rucaparib]
Experiment: as above
Outline: as §1

Row | Target | log2 fold change
40 | TMEM245 (UniProt Q9H330) | inactive: -0.1
41 | TMEM167A (UniProt Q8TBQ9) | inactive: -0.044
42 | TMOD2 (UniProt Q9NZR1) | inactive: -0.194
43 | TMED4 (UniProt Q7Z7H5) | inactive: -0.049
44 | TMEM14C (UniProt Q9P0S9) | inactive: -0.001
45 | TLN2 (UniProt Q9Y4G6) | inactive: 0.148
46 | TMEM109 (UniProt Q9BVC6) | inactive: 0.028
47 | TM2D3 (UniProt Q9BRN9) | inactive: -0.02
48 | TMEM186 (UniProt Q96B77) | inactive: -0.067
49 | TMEM141 (UniProt Q96I45) | inactive: -0.061
50 | TMEM65 (UniProt Q6PI78) | inactive: 0.216
51 | TMEM87A (UniProt Q8NBN3) | inactive: 0.015
52 | TMEM33 (UniProt P57088) | inactive: -0.006
53 | TLN1 (UniProt Q9Y490) | inactive: -0.011
54 | TNFRSF10B (UniProt O14763) | inactive: -0.099
55 | TMEM160 (UniProt Q9NX00) | inactive: 0.181
56 | TM9SF3 (UniProt Q9HD45) | inactive: 0.012
57 | TMPO isoform 2 (UniProt P42167) | inactive: -0.035
58 | TMOD3 (UniProt Q9NYL9) | inactive: 0.141
59 | TMEM222 (UniProt Q9H0R3) | inactive: 0.048

Row | Target | log2 fold change
60 | TMEM185B (UniProt Q9H7F4) | inactive: -0.114
61 | TMA16 (UniProt Q96EY4) | inactive: 0.178
62 | TMEM30A (UniProt Q9NV96) | inactive: -0.084
63 | TMEM68 (UniProt Q96MH6) | inactive: -0.028
64 | TMCO1 (UniProt Q9UM00) | inactive: 0.006
65 | TMED2 (UniProt Q15363) | inactive: 0.002
66 | TMX4 (UniProt Q9H1E5) | inactive: 0.065
67 | TMEM168 (UniProt Q9H0V1) | inactive: 0
68 | TMPO (UniProt P42166) | inactive: -0.04
69 | TMEM259 (UniProt Q4ZIN3) | inactive: 0.033
70 | TMSB10 (UniProt P63313) | inactive: 0.194
71 | TMEM248 (UniProt Q9NWD8) | inactive: -0.126
72 | TMED3 (UniProt Q9Y3Q3) | inactive: -0.075
73 | TMEM209 (UniProt Q96SK2) | inactive: -0.05
74 | TMEM230 isoform 2 (UniProt Q96A57) | inactive: 0.133
75 | TMED1 (UniProt Q13445) | inactive: -0.023
76 | TMPO (UniProt P42167) | inactive: -0.122
77 | TMEM62 (UniProt Q0P6H9) | inactive: -0.096
78 | TMEM11 (UniProt P17152) | inactive: -0.105
